Consider 41 targets from the supplement of paper PMC12067093, “Discovery and optimisation of a covalent ligand for TRIM25 and its application to targeted protein ubiquitination” (Chemical Science, 2025).

Sequences of proteins named here, by UniProt entry; tags and fusion partners are left off. A change or cut given only in a name is not applied to a line headed by its entry.
UniProt P49588, whole entry, looked up: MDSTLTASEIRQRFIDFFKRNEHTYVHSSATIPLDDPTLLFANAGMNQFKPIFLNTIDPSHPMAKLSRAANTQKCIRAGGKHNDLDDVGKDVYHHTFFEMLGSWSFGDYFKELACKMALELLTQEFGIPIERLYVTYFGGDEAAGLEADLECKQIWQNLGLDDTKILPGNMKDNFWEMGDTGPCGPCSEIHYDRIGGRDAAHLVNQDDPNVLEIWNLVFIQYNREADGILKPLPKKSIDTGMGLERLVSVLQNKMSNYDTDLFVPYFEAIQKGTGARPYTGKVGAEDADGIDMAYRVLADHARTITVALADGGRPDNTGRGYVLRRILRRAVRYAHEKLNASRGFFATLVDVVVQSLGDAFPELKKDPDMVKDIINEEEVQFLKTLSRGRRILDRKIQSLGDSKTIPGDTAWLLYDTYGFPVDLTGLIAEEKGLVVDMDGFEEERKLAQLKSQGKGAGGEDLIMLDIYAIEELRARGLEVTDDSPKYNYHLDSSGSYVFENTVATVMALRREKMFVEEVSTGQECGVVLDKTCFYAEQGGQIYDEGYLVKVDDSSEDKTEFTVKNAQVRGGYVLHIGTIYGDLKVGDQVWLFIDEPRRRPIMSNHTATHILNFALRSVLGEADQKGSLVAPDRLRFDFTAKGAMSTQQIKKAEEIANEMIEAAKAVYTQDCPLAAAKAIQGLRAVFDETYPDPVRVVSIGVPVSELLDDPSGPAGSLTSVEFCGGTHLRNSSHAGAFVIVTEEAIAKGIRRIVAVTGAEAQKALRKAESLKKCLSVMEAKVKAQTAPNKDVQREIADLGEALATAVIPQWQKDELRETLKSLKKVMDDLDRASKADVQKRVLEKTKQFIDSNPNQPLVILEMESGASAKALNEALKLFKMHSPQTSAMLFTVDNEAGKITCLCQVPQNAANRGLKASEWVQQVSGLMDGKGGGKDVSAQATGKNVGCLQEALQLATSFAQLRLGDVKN
UniProt Q5T8D3: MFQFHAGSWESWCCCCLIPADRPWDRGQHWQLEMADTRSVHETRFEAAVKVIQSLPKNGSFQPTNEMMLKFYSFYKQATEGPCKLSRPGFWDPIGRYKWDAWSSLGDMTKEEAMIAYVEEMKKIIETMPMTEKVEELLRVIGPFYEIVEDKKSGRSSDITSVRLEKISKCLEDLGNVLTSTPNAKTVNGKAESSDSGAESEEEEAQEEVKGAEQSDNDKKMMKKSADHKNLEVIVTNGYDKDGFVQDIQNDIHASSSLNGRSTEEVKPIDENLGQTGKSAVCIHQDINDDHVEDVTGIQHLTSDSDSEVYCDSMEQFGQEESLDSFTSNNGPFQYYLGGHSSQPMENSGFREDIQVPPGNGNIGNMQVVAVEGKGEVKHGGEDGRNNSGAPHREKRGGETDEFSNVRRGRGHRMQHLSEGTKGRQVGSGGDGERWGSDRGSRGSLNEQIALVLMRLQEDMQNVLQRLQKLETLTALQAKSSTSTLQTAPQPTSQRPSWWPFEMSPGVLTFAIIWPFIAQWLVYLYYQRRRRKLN
UniProt P09110: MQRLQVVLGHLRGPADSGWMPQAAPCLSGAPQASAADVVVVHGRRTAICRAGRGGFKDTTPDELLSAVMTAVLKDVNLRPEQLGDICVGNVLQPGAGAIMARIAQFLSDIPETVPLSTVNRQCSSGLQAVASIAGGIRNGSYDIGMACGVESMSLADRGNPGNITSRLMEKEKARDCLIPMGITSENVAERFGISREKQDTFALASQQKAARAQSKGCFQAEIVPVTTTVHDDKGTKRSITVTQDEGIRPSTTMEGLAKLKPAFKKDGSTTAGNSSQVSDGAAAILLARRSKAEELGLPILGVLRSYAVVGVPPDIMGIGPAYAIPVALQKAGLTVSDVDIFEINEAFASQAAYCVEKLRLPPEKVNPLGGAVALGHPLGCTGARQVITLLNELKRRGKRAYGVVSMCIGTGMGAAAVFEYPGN
UniProt Q9UG63: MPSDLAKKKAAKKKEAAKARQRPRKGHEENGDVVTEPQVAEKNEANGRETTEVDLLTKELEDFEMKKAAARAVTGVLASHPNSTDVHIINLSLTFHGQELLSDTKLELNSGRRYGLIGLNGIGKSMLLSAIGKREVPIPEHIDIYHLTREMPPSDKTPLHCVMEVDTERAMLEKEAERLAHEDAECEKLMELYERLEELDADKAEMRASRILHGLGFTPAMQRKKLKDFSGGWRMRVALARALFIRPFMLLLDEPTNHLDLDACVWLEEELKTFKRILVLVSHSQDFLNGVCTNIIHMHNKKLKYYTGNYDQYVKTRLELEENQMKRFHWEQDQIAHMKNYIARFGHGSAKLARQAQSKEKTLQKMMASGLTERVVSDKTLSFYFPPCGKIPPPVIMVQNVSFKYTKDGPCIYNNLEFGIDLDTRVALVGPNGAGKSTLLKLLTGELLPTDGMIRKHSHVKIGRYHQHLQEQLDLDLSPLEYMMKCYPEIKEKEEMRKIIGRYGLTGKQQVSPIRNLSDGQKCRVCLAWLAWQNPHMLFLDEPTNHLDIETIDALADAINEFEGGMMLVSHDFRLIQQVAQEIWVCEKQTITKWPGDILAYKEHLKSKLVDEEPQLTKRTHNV
UniProt O95870: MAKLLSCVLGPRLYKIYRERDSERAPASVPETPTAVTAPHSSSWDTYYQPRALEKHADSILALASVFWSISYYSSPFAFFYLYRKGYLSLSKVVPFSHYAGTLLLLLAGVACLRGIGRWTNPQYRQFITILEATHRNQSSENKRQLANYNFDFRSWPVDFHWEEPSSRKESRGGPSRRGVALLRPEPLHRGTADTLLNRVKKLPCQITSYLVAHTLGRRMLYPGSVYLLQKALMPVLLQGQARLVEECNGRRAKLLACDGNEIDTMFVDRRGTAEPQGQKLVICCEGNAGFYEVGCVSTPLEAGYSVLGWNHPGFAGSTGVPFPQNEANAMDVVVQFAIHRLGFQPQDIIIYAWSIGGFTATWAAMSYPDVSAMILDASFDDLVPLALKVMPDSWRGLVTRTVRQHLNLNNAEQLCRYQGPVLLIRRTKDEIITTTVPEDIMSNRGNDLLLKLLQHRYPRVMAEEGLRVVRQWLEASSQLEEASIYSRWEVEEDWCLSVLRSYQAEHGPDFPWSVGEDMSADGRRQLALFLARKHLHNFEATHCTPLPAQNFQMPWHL
UniProt Q15057: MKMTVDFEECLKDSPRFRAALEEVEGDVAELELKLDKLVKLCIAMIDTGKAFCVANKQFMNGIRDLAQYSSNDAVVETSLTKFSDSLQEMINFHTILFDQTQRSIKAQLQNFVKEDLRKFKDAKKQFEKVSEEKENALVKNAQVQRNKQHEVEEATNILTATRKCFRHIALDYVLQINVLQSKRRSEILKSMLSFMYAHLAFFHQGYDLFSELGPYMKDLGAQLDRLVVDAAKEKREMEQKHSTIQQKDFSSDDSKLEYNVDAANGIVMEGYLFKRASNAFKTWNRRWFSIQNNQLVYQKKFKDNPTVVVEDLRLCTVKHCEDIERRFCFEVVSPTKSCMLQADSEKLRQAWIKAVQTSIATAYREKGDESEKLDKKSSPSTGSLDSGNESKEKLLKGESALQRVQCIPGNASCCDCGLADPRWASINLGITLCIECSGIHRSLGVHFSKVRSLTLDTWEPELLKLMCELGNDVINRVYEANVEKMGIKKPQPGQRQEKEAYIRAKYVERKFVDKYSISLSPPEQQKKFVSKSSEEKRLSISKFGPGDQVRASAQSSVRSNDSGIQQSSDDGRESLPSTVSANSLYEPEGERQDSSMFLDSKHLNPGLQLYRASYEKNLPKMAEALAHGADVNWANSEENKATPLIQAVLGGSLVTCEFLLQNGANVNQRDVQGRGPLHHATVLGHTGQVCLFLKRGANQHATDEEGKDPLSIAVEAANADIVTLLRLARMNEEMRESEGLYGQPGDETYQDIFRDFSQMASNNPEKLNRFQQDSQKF
UniProt Q9UKV3: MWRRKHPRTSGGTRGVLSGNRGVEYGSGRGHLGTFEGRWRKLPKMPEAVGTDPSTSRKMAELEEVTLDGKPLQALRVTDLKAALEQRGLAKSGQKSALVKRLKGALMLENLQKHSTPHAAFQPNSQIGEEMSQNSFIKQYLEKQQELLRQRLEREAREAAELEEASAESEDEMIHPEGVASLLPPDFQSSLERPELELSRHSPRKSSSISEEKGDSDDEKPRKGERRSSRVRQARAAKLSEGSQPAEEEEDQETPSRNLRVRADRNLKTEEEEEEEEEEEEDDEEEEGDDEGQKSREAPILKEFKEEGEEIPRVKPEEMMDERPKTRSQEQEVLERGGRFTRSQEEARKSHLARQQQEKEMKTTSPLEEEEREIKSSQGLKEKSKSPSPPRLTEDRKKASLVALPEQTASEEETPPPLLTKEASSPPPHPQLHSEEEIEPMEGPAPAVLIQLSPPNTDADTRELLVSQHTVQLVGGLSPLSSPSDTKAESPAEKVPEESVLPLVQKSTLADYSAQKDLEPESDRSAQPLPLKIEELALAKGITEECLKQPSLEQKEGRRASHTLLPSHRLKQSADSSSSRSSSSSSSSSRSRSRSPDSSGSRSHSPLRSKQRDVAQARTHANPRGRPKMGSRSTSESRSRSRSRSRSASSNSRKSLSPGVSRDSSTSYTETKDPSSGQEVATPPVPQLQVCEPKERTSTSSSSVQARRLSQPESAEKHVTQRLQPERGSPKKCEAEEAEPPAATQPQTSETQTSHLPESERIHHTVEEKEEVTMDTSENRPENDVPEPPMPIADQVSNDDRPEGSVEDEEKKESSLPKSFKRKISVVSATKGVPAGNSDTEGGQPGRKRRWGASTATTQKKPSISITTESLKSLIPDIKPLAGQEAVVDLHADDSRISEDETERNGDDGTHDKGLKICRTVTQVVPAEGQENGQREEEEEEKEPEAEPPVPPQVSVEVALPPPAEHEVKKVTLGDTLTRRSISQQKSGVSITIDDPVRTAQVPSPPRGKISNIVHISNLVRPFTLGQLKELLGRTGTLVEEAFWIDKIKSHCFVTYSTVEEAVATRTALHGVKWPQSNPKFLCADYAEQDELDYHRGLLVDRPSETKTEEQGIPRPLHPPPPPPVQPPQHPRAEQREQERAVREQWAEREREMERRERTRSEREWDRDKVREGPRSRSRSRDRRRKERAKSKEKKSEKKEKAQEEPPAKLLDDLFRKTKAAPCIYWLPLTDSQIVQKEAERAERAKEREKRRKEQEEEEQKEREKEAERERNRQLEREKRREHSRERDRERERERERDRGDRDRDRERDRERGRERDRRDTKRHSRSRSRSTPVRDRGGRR
UniProt Q9H7C9: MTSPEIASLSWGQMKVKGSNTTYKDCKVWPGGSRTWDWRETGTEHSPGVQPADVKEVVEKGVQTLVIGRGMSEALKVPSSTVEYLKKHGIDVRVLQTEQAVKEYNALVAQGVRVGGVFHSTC
UniProt Q2M2I8: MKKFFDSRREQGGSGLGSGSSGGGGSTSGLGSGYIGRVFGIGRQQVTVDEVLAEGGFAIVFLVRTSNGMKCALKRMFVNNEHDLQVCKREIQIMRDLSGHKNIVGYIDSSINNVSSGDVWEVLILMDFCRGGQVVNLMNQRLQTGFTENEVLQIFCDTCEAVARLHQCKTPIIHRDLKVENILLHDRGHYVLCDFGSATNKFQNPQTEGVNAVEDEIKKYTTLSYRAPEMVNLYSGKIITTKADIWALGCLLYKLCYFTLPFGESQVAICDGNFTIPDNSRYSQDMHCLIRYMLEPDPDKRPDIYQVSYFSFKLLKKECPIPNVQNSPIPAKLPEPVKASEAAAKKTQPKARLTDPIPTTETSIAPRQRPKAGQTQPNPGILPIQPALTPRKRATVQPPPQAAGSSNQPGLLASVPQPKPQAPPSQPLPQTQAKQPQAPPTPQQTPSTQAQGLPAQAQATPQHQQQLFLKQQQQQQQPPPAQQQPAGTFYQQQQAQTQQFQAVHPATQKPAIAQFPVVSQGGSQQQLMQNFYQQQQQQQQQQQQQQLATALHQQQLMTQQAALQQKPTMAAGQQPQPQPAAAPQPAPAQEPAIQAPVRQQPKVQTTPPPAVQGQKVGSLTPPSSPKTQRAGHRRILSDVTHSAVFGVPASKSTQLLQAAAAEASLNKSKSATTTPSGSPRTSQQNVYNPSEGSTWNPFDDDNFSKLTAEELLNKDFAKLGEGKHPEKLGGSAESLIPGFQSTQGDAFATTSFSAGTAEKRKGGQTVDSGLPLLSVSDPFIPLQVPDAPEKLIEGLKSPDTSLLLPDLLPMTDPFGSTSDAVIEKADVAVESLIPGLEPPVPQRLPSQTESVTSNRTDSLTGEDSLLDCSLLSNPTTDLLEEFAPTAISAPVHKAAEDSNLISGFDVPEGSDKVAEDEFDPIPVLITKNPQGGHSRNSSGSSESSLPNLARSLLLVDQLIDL
UniProt Q9BR61: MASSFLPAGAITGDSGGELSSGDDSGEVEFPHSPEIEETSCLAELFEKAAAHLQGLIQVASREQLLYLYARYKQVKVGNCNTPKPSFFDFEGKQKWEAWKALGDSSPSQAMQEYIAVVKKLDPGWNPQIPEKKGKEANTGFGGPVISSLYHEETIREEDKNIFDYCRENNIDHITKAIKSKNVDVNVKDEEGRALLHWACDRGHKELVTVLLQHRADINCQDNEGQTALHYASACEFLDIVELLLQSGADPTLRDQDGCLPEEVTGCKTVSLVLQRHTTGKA

This is one part of the list.

Compound in this test: Cc1cc(ccc1-c1ccccc1)C(=O)N1CCCN(CC1)C(=O)CCl [compound 10]
The test can be described thus: probe-labelled cysteine peptide fold change vs DMSO (competition) (log2 fold change); higher = less target engagement (more negative = stronger competition). To be noted: THP-1, incubation time: 4 h.
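Also: competitive profiling in live THP-1 cells: cysteine peptides tagged with an iodoacetamide desthiobiotin (IA-DTB) probe, intensity after compound treatment relative to DMSO-treated cells.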

Turning to “AARS_P49588_187_DNFWEMGDTGPCGPCSEIHYDR (UniProt P49588)”, the “probe-labelled cysteine peptide fold change” value (10 µM) is -0.232 and the “probe-labelled cysteine peptide fold change” value (50 µM) was found to be 0.00452.

As for “ACAD10_Q6JQN1_197_LCLEQLGLQPSESIFLDDLGTNLK (UniProt Q6JQN1)”, the “probe-labelled cysteine peptide fold change” value was found to be 0.0774 (10 µM) and 0.00134 (50 µM).

On to “ABCE1_P61221_231_FACAVVCIQK (UniProt P61221)”, for which the “probe-labelled cysteine peptide fold change” value worked out at 0.178 (10 µM) and 0.254 (50 µM).

Turning to “ACBD5_Q5T8D3_83_QATEGPCK (UniProt Q5T8D3)”, the “probe-labelled cysteine peptide fold change” value runs as follows: (10 µM) 0.219; (50 µM) 0.056.

As to “ACOT9_Q9Y305_128_ILEDLDSLGVLICYMHNK (UniProt Q9Y305)”, the “probe-labelled cysteine peptide fold change” value reads like this: (10 µM) 0.118; (50 µM) 0.23.

“ACADVL_P49748_237_TSAVPSPCGK (UniProt P49748)”: the “probe-labelled cysteine peptide fold change” value was -0.143 (10 µM) and -0.259 (50 µM).

In the case of “ACACB_O00763_1429_SLREEPIHILNVSIQCADHLEDEALVPILR (UniProt O00763)”, the “probe-labelled cysteine peptide fold change” value runs as follows: (10 µM) -0.273; (50 µM) -0.503.

As for “ACAA1_P09110_381_VNPLGGAVALGHPLGCTGAR (UniProt P09110)”, the “probe-labelled cysteine peptide fold change” value was 0.0101 (10 µM) and 0.098 (50 µM).

Consider “ACADM_P11310_159_MTEEPLMCAYCVTEPGAGSDVAGIK (UniProt P11310)”, for which the “probe-labelled cysteine peptide fold change” value (10 µM) was -0.0645 and the “probe-labelled cysteine peptide fold change” value (50 µM) is -0.598.

Consider “ABCF2_Q9UG63_586_LIQQVAQEIWVCEK (UniProt Q9UG63)”, for which the “probe-labelled cysteine peptide fold change” value reads like this: (10 µM) 0.35; (50 µM) 0.325.

In the case of “ACAT1_P24752_119_QAVLGAGLPISTPCTTINK (UniProt P24752)”, the “probe-labelled cysteine peptide fold change” value is, setting by setting: (10 µM) -0.241; (50 µM) -0.635.

“ACACA_Q13085_1176_DNTCVVEFQFMLPTSHPNR (UniProt Q13085)”: the “probe-labelled cysteine peptide fold change” value runs as follows: (10 µM) 0.179; (50 µM) 0.423.

For the target “ABHD16A_O95870_205_KLPCQITSYLVAHTLGR (UniProt O95870)”, the “probe-labelled cysteine peptide fold change” value reads like this: (10 µM) -1.03; (50 µM) -0.401.

For the target “ACAA1_P09110_123_QCSSGLQAVASIAGGIR (UniProt P09110)”, the “probe-labelled cysteine peptide fold change” value (10 µM) is -0.136 and the “probe-labelled cysteine peptide fold change” value (50 µM) was -0.197.

For “ACAP2_Q15057_10_MTVDFEECLK (UniProt Q15057)”, the “probe-labelled cysteine peptide fold change” value (10 µM) is -0.0177 and the “probe-labelled cysteine peptide fold change” value (50 µM) came out at 0.127.

For the target “ACBD3_Q9H3P7_487_RDCHEEVYAGSHQYPGR (UniProt Q9H3P7)”, the “probe-labelled cysteine peptide fold change” value is, setting by setting: (10 µM) -0.0714; (50 µM) 0.129.

For the target “ABL1_P00519_100_VLGYNHNGEWCEAQTK (UniProt P00519)”, the “probe-labelled cysteine peptide fold change” value was 0.091 (10 µM) and 0.0961 (50 µM).

Consider “ACIN1_Q9UKV3_1083_FLCADYAEQDELDYHR (UniProt Q9UKV3)”, for which the “probe-labelled cysteine peptide fold change” value is, setting by setting: (10 µM) 0.00781; (50 µM) 0.134.

As to “A2ML1_A8K2U0_694_PVDCSHR (UniProt A8K2U0)”, the “probe-labelled cysteine peptide fold change” value runs as follows: (10 µM) -0.00566; (50 µM) 0.00578.

On to “ABHD15_Q6UXT9_199_GHHGCPLVSPR (UniProt Q6UXT9)”, for which the “probe-labelled cysteine peptide fold change” value is -0.202 (10 µM) and -0.334 (50 µM).

As to “ABRAXAS2_Q15018_237_VVESCQAEVNK (UniProt Q15018)”, the “probe-labelled cysteine peptide fold change” value is -0.0514 (10 µM) and 0.106 (50 µM).

As for “AAMDC_Q9H7C9_122_VGGVFHSTC (UniProt Q9H7C9)”, the “probe-labelled cysteine peptide fold change” value reads like this: (10 µM) -0.142; (50 µM) 0.0875.

In the case of “ACAP2_Q15057_329_FCFEVVSPTK (UniProt Q15057)”, the “probe-labelled cysteine peptide fold change” value is, setting by setting: (10 µM) 0.23; (50 µM) 0.177.

In the case of “AARS2_Q5JTZ9_749_VVSVGVPVAHALDPASQAALQTSVELCCGTHLLR (UniProt Q5JTZ9)”, the “probe-labelled cysteine peptide fold change” value runs as follows: (10 µM) -0.198; (50 µM) -0.853.

For the target “AARS_P49588_184_DNFWEMGDTGPCGPCSEIHYDR (UniProt P49588)”, the “probe-labelled cysteine peptide fold change” value runs as follows: (10 µM) -0.0131; (50 µM) 0.0157.

Turning to “ABCE1_P61221_475_VALALCLGK (UniProt P61221)”, the “probe-labelled cysteine peptide fold change” value was found to be 0.0849 (10 µM) and 0.232 (50 µM).

Turning to “AARS2_Q5JTZ9_596+609_AQVCGGFILHEAVAPECLR (UniProt Q5JTZ9)”, the “probe-labelled cysteine peptide fold change” value was -0.256 (10 µM) and -0.572 (50 µM).

Take “ABCF2_Q9UG63_186_LAHEDAECEK (UniProt Q9UG63)”: the “probe-labelled cysteine peptide fold change” value by setting is: (10 µM) -0.104; (50 µM) 0.00337.

With “ACD_Q96AP0_466_EFVGLPCK (UniProt Q96AP0)”, the “probe-labelled cysteine peptide fold change” value was -0.126 (10 µM) and -0.748 (50 µM).

Turning to “AAK1_Q2M2I8_87_MFVNNEHDLQVCK (UniProt Q2M2I8)”, the “probe-labelled cysteine peptide fold change” value (10 µM) was -0.079 and the “probe-labelled cysteine peptide fold change” value (50 µM) came to 0.0729.

Regarding “ACACA_Q13085_1297_TDCDIEDDRLAAMFR (UniProt Q13085)”, the “probe-labelled cysteine peptide fold change” value runs as follows: (10 µM) 0.00907; (50 µM) -0.423.

On to “AAR2_Q9Y312_156_QICAFSDVLPVLSMK (UniProt Q9Y312)”, for which the “probe-labelled cysteine peptide fold change” value is -0.0329 (10 µM) and -0.26 (50 µM).

For the target “ACOT7_O00154_92_HCNSQNGER (UniProt O00154)”, the “probe-labelled cysteine peptide fold change” value reads like this: (10 µM) -0.182; (50 µM) -0.112.

As for “ACOT13_Q9NPJ3_74_VEEEHTNAIGTLHGGLTATLVDNISTMALLCTER (UniProt Q9NPJ3)”, the “probe-labelled cysteine peptide fold change” value (10 µM) was 0.000386 and the “probe-labelled cysteine peptide fold change” value (50 µM) amounted to 0.204.

“ACBD6_Q9BR61_80_VGNCNTPKPSFFDFEGK (UniProt Q9BR61)”: the “probe-labelled cysteine peptide fold change” value runs as follows: (10 µM) 0.0959; (50 µM) -0.579.

“ACO2_Q99798_332_DHLVPDPGCHYDQLIEINLSELKPHINGPFTPDLAHPVAEVGK (UniProt Q99798)”: the “probe-labelled cysteine peptide fold change” value was -0.228 (10 µM) and 0.153 (50 µM).

On to “AAK1_Q2M2I8_193_GHYVLCDFGSATNK (UniProt Q2M2I8)”, for which the “probe-labelled cysteine peptide fold change” value runs as follows: (10 µM) 0.226; (50 µM) -0.00198.

Regarding “ACOT2_P49753_401_SEFYANEACK (UniProt P49753)”, the “probe-labelled cysteine peptide fold change” value by setting is: (10 µM) -0.205; (50 µM) -0.305.

As to “ABHD16A_O95870_416_QHLNLNNAEQLCR (UniProt O95870)”, the “probe-labelled cysteine peptide fold change” value (10 µM) is -0.0924 and the “probe-labelled cysteine peptide fold change” value (50 µM) is -0.0118.

As for “ABHD10_Q9NUJ1_239_EAEHHCLLHSPIPVNCPIR (UniProt Q9NUJ1)”, the “probe-labelled cysteine peptide fold change” value is, setting by setting: (10 µM) -0.0294; (50 µM) 0.164.

As to “ACLY_P53396_20_FICTTSAIQNR (UniProt P53396)”, the “probe-labelled cysteine peptide fold change” value by setting is: (10 µM) -0.016; (50 µM) -0.193.
